These are yes or no findings as the source states them, for the method shown. For some assays here: In cells and extracts the contact can be indirect. Some results given as binding are weak or reduced against the parent protein; the word gives no strength. Where a sequence is shown, tags or fusion partners need not be part of it.

In test [1] the target is T1, GAD:POTH1 fusion protein (Solanum tuberosum).
T1 construct: 35S-methionine labelled, made by in vitro transcription/translation for the immunoprecipitation; also called POTH1:GAD
T1 chain: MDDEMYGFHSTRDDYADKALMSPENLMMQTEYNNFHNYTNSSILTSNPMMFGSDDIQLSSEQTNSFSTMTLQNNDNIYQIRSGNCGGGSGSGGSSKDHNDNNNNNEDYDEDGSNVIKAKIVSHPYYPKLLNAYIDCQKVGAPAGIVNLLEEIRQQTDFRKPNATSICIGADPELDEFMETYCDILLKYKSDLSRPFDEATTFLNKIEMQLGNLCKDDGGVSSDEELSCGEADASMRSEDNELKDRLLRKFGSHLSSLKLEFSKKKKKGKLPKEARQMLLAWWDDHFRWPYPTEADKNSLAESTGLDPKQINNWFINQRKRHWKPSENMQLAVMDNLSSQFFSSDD
Kind of test: in vitro transcription/translation, immunoprecipitation assay. The method, then:
(§1) In vitro binding experiments were performed as described by Ni et al., "PIF3, a Phytochrome-Interacting Factor Necessary for Normal Photoinduced Signal Transduction, is a Novel Basic *Helix*-Loop-Helix Protein," *Cell* 95:657-667 (1998), which is hereby incorporated by reference in its entirety. The full-length sequence for POTH1 was cloned into a pET17b/GAD fusion cassette and transcribed under the control of the T7 promoter. The BEL cDNAs were cloned into pGEM11Z vectors and were transcribed under the control of the T7 promoter. ^35S-methionine labeled bait and prey proteins were synthesized using the TnT in vitro transcription-translation kit (Promega) according to the manufacturer's protocols. Each 50 μl TnT reaction contained 2.0 μg of template plasmid DNA and 20 μmol (20 μCi) of labeled ^35S-methionine. The POTH1:GAD/BEL complex was immunoprecipitated with anti-GAD antibodies (Santa Cruz Biotechnology, Calif.). The proteins from the pellet (one-half the fraction) and for the prey (one-fourth of the reaction volume) were resolved on a 10% SDS-PAGE gel and visualized by autoradiography.

For test [2], the target named is T1, GAD:POTH1 fusion protein. Kind of test: in vitro translated 35S-labelled proteins, co-immunoprecipitation with anti-GAD antibodies, SDS-PAGE autoradiography. As for the experimental part: as §1

B1: StBEL-05 protein from pGEM11Z (in vitro transcription/translation) (other)
chain: MYYQGTSDNTNIQADHQQRHNHGNSNNNNIQTLYLMNPNNYMQGYTTSDTQQQQQLLFLNSSPAASNALCHANIQHAPLQQQHFVGVPLPAVSLHDQINHHGLLQRMWNNQDQSQQVIVPSSTGVSATSCGGITTDLASQLAFQRPIPTPQHRQQQQQQGGLSLSLSPQLQQQISFNNNISSSSPRTNNVTIRGTLDGSSSNMVLGSKYLKAAQELLDEVVNIVGKSIKGDDQKKDNSMNKESMPLASDVNTNSSGGGESSSRQKNEVAVELTTAQRQELQMKKAKLLAMLEEVEQRYRQYHHQMQIIVLSFEQVAGIGSAKSYTQLALHAISKQFRCLKDAIAEQVKATSKSLGEEEGLGGKIEGSRLKFVDHHLRQQRALQQIGMMQPNAWRPQRGLPERAVSVLRAWLFEHFLHPYPKDSDKIMLAKQTGLTRSQVSNWFINARVRLWKPMVEEMYLEEVKNQEQNSTNTSGDNKNKETNISAPNEEKHPIITSSLLQDGITTTQAEISTSTISTSPTAGASLHHAHNFSFLGSFNMDNTTTTVDHIENNAKKQRNDMHKFSPSSILSSVDMEAKARESSNKGFTNPLMAAYAMGDFGRFDPHDQQMTANFHGNNGVSLTLGLPPSENLAMPVSQQNYLSNDLGSRSEMGSHYNRMGYENIDFQSGNKRFPTQLLPDFVTGNLGT
notes: 35S-methionine labelled prey; also called p11Z-5
As for B1, the binding result in test [1] and in test [2] was “binds” in each case.

Source of the values: patent publication US7265263B1, “Potato transcription factors, methods of use thereof, and a method for enhancing tuber development” (Iowa State University Research Foundation, Inc., priority 2002, dated 2007).
